For seven compounds, odorant receptor activation results are on record in the odorant receptor screen of Mainland et al. (2015).

Among the test systems are OR13C3 G2C clone 1339; OR13C3 clone 1390; OR13C4 clone 1094; OR13C7 Indel clone 1100; OR13C8 clone 1095; OR13C9 F197L clone 1096; OR13D1 clone 1338; OR13D1 clone 1484; OR13G1 I132V clone 1036; OR13H1 clone 1497; OR13J1 H133R clone 1098; OR14A16 Indel clone 1030; OR14A2 clone 1042; OR14J1 clone 1318; OR14J1 clone 1391; OR14K1 clone 1043.
Common to all, as to experiment: odorant receptor activation (CRE luciferase / Renilla) (fold of no-odor wells); higher = more activation
Common to all, as to conditions: 100 µM

In assay [1] the test system is OR13C5 S18F/L69M/P79S/L86V/N128S/M258T clone 1477.
Assay [2] deals with OR13F1 F18S/M101V/V134I/I270T clone 1097.
In assay [3] the test system is OR14C36 G225R/D231Y clone 1028.
In assay [4] the test system is OR14I1 V36A/D50N/S170N clone 1479.

Where “and” joins values, the source holds several entries; their conditions need not be identical. Identical values can stand only once. Some of the results follow. Each value is one well over the wells without odorant, computed here; the data are noisy.

`CC1CCC(C(C)C)C(O)C1` (single isomer, unassigned; (-)) [(-)-menthol]: the odorant receptor activation was found to be 0.722 in the assay with OR13C3 G2C clone 1339; 0.684 in the assay on OR13C3 clone 1390; 18.1 in the assay with OR13C4 clone 1094; 3.72 in assay [1]; 10.6 in the assay on OR13C7 Indel clone 1100; 2.69 in the assay on OR13C8 clone 1095. Also, the odorant receptor activation came to 30.5 in the assay with OR13C9 F197L clone 1096; 0.805 with OR13D1 clone 1338; 3.04 in the assay with OR13D1 clone 1484; 1.82 in [2]; 2.47 in the assay with OR13G1 I132V clone 1036; 3.67 in the assay on OR13H1 clone 1497. In addition, the odorant receptor activation with OR13J1 H133R clone 1098 was found to be 3.23; in the assay on OR14A16 Indel clone 1030, 3.37; in the assay on OR14A2 clone 1042 it was 2.95; in assay [3], 3.29; in assay [4], 2.31; with OR14J1 clone 1318, 0.98. Further, the results for the odorant receptor activation in the assay with OR14J1 clone 1391 and in the assay with OR14K1 clone 1043 were 0.707 and 3.07, respectively.
For `CCCCCCOC(=O)CCC` [hexyl butyrate], the odorant receptor activation was 1.24 and 0.827 in the assay with OR13C3 G2C clone 1339; 0.817 in the assay on OR13C3 clone 1390; 1.2 in the assay with OR13C4 clone 1094; 0.93 and 0.903 in assay [1]; 0.453 in the assay on OR13C7 Indel clone 1100; 1.33 in the assay on OR13C8 clone 1095. Besides, the odorant receptor activation in the assay on OR13C9 F197L clone 1096 is 0.845; with OR13D1 clone 1338, 1.9 and 0.64; with OR13D1 clone 1484, 1.19 and 1; in assay [2] it was 1.8; in the assay with OR13G1 I132V clone 1036 it was 0.559; in the assay on OR13H1 clone 1497, 0.781 and 0.915. Besides, the odorant receptor activation is 0.525 in the assay with OR13J1 H133R clone 1098; 1.1 in the assay with OR14A16 Indel clone 1030; 1.44 in the assay with OR14A2 clone 1042; 0.54 in assay [3]; 0.904 and 0.832 in [4]; 1.17 and 0.924 in the assay on OR14J1 clone 1318. Further, the values for the odorant receptor activation with OR14J1 clone 1391 and in the assay on OR14K1 clone 1043 were 0.905 and 1.06, respectively.
Take `CC(C)(C)c1ccc(CCC=O)cc1` [bourgeonal]: the odorant receptor activation in the assay on OR13C3 G2C clone 1339 is 1.03; with OR13C3 clone 1390, 0.167; in the assay with OR13C4 clone 1094 it was 0.775; in assay [1], 0.968; with OR13C7 Indel clone 1100, 0.795; with OR13C8 clone 1095, 0.913. Also, the odorant receptor activation turned out to be 0.924 in the assay with OR13C9 F197L clone 1096; 0.707 in the assay with OR13D1 clone 1338; 0.857 in the assay on OR13D1 clone 1484; 0.992 in assay [2]; 0.872 in the assay with OR13G1 I132V clone 1036; 0.959 with OR13H1 clone 1497. Besides, the odorant receptor activation in the assay with OR13J1 H133R clone 1098 was 0.767; in the assay on OR14A16 Indel clone 1030 it was 0.663; in the assay with OR14A2 clone 1042, 0.952; in [3] it was 0.607; in assay [4], 1.17; with OR14J1 clone 1318 it was 0.604. The odorant receptor activation with OR14J1 clone 1391 was determined as 0.133; in the assay on OR14K1 clone 1043, 0.944.
With `CC/C=C\CCO` [cis-3-hexen-1-ol], the odorant receptor activation amounted to 1.02 in the assay on OR13C3 G2C clone 1339; 0.223 with OR13C3 clone 1390; 1.01 with OR13C4 clone 1094; 0.766 in [1]; 0.954 in the assay with OR13C7 Indel clone 1100; 0.81 in the assay on OR13C8 clone 1095. The odorant receptor activation in the assay on OR13C9 F197L clone 1096 is 0.897; in the assay with OR13D1 clone 1338, 0.964; in the assay on OR13D1 clone 1484, 0.959; in [2], 0.856; in the assay on OR13G1 I132V clone 1036, 0.894; in the assay on OR13H1 clone 1497, 0.898. Also, the odorant receptor activation stood at 0.842 in the assay with OR13J1 H133R clone 1098; 0.88 in the assay on OR14A16 Indel clone 1030; 1.14 in the assay on OR14A2 clone 1042; 0.784 in assay [3]; 1.04 in assay [4]; 0.944 in the assay with OR14J1 clone 1318. For the same compound, the odorant receptor activation was 0.133 in the assay on OR14J1 clone 1391 and 0.877 in the assay with OR14K1 clone 1043.
On to `CC(=O)c1ccccc1` [acetophenone], for which the odorant receptor activation in the assay with OR13C3 G2C clone 1339 was 1.43; in the assay on OR13C3 clone 1390 it was 1.06; with OR13C4 clone 1094 it was 1.03; in [1], 0.792 and 0.76; in the assay with OR13C7 Indel clone 1100, 0.871; in the assay with OR13C8 clone 1095, 1.26. In addition, the odorant receptor activation in the assay with OR13C9 F197L clone 1096 is 0.87; in the assay with OR13D1 clone 1338 it was 0.837; in the assay with OR13D1 clone 1484 it was 1.2 and 0.625; in [2], 1.16; with OR13G1 I132V clone 1036 it was 0.401; in the assay with OR13H1 clone 1497, 0.813 and 0.766. The odorant receptor activation with OR13J1 H133R clone 1098 was 0.665; in the assay with OR14A16 Indel clone 1030, 0.721; with OR14A2 clone 1042, 2.16; in [3], 0.531; in assay [4], 0.848 and 0.638; in the assay on OR14J1 clone 1318, 1.72. The odorant receptor activation in the assay with OR14J1 clone 1391 worked out at 0.891; in the assay on OR14K1 clone 1043 it was 0.669.
For `CC(=O)C(C)=O` [diacetyl], the odorant receptor activation turned out to be 1.3 with OR13C3 G2C clone 1339; 1.39 in the assay with OR13C3 clone 1390; 0.775 with OR13C4 clone 1094; 0.966 in assay [1]; 0.899 with OR13C7 Indel clone 1100; 0.954 with OR13C8 clone 1095. The odorant receptor activation with OR13C9 F197L clone 1096 was found to be 1.03; with OR13D1 clone 1338 it was 1.11; in the assay with OR13D1 clone 1484, 1.52; in [2], 0.99; in the assay with OR13G1 I132V clone 1036, 1.09; in the assay on OR13H1 clone 1497, 1.57. Also, the odorant receptor activation with OR13J1 H133R clone 1098 came out at 1.2; in the assay on OR14A16 Indel clone 1030, 1.27; in the assay with OR14A2 clone 1042, 1.18; in [3], 1.17; in assay [4] it was 1.18; in the assay with OR14J1 clone 1318, 1.28. Further, the odorant receptor activation is 1.34 with OR14J1 clone 1391 and 1.27 in the assay on OR14K1 clone 1043.
On to `C=CCSCC=C` [diallyl sulfide], for which the odorant receptor activation came out at 1.16 in the assay on OR13C3 G2C clone 1339; 1.05 in the assay on OR13C3 clone 1390; 0.831 in the assay with OR13C4 clone 1094; 1.09 in assay [1]; 0.846 in the assay with OR13C7 Indel clone 1100; 1.02 in the assay with OR13C8 clone 1095. Besides, the odorant receptor activation was found to be 0.932 in the assay with OR13C9 F197L clone 1096; 0.946 in the assay on OR13D1 clone 1338; 1.25 with OR13D1 clone 1484; 0.907 in [2]; 1.03 in the assay with OR13G1 I132V clone 1036; 1.24 in the assay with OR13H1 clone 1497. Further, the odorant receptor activation is 1.08 with OR13J1 H133R clone 1098; 0.833 in the assay on OR14A16 Indel clone 1030; 0.979 in the assay on OR14A2 clone 1042; 1 in assay [3]; 0.962 in assay [4]; 1.03 with OR14J1 clone 1318. For the same compound, the odorant receptor activation in the assay on OR14J1 clone 1391 amounted to 1.19; in the assay on OR14K1 clone 1043 it was 0.965.
